Results reported in PMC11166458, “Caskin2 is a novel talin- and Abi1-binding protein that promotes cell motility” (Journal of Cell Science, 2024).

Chains of the proteins cited; added tags and fusions are not shown. Lines headed by an entry give the natural chain unless they say otherwise; changes in a name come on top. A line that says so, or that is headed by a name, gives the form on record, which may keep a tag or linker.
UniProt Q8WXE0: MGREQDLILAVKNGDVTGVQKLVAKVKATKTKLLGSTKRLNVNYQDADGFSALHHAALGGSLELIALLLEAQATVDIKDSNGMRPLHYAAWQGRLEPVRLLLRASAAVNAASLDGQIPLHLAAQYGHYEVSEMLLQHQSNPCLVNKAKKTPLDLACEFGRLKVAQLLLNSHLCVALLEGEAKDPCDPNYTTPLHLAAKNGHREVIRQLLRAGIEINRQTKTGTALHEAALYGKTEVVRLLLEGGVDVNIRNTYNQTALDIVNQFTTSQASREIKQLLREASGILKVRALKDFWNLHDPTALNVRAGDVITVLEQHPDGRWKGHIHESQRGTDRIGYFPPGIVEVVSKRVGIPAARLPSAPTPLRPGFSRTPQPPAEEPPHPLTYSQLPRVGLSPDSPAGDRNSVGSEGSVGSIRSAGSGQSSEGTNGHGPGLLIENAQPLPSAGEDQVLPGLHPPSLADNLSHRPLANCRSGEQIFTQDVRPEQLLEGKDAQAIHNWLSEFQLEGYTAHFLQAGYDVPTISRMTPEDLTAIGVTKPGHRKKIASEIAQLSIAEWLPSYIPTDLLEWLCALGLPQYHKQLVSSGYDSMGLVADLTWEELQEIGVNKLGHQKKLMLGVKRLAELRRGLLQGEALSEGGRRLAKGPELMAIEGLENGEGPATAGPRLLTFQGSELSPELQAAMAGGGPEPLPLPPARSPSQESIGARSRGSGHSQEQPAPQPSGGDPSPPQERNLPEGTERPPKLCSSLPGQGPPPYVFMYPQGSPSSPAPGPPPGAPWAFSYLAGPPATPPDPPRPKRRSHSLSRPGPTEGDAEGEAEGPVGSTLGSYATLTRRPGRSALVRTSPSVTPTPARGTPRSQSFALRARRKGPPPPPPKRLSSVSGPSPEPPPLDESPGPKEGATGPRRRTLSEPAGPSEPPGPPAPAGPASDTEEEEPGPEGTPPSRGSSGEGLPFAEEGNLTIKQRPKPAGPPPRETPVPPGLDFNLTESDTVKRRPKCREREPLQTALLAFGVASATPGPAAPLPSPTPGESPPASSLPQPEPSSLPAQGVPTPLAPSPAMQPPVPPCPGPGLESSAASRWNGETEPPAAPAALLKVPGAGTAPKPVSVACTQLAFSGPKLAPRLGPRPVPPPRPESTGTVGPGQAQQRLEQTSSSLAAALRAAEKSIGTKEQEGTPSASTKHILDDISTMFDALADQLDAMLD
UniProt Q9NYB9: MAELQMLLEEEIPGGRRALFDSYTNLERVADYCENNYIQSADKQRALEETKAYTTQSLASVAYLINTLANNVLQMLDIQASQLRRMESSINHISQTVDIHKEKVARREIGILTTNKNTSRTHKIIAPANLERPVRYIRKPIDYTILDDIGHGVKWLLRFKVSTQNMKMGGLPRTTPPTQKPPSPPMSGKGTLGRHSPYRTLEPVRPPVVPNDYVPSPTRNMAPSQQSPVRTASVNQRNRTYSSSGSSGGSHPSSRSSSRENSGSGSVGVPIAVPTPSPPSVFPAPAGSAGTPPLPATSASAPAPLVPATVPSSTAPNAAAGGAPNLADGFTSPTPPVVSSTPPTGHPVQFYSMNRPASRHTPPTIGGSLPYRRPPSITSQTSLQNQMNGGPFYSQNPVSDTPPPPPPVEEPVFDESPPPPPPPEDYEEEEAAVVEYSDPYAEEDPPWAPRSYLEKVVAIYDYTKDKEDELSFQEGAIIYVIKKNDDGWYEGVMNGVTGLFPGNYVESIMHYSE
UniProt Q8CBW3: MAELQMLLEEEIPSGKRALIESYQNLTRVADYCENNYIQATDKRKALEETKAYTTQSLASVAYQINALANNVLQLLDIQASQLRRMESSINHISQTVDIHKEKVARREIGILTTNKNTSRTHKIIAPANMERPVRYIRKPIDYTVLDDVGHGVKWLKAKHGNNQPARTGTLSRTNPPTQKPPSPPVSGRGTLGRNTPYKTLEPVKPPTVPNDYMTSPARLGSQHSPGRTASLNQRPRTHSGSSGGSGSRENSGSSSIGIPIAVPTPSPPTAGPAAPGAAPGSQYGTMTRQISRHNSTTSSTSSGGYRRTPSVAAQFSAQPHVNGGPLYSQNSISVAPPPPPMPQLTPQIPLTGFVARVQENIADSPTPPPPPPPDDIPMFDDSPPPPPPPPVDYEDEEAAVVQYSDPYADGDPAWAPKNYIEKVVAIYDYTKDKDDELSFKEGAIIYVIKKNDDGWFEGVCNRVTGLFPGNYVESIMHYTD
UniProt P62484: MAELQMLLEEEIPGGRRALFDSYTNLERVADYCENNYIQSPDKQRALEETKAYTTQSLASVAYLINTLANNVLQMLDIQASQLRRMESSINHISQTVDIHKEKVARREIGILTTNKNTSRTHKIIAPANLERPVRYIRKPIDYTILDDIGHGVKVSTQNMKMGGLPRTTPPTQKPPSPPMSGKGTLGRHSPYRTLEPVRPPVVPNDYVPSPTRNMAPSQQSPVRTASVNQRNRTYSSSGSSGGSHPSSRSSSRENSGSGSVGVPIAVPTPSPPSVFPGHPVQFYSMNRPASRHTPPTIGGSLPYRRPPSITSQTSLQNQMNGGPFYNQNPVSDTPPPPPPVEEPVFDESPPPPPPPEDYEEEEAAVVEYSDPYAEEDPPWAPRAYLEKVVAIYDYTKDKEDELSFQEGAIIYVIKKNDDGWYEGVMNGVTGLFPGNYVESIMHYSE
HA–Abi1 (Q8IZP0-6, form named): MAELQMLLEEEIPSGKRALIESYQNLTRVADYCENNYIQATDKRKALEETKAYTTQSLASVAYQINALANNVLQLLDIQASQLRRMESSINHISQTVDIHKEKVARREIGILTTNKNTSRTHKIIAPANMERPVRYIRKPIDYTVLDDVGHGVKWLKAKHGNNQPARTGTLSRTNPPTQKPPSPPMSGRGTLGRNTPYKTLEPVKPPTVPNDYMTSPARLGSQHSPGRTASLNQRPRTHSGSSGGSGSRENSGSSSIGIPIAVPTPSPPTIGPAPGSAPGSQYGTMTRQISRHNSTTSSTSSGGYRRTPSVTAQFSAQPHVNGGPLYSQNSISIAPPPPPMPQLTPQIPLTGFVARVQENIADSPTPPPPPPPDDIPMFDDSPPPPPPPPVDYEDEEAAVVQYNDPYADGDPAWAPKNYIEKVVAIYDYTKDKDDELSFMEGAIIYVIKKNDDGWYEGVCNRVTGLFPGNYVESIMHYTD
UniProt P62259: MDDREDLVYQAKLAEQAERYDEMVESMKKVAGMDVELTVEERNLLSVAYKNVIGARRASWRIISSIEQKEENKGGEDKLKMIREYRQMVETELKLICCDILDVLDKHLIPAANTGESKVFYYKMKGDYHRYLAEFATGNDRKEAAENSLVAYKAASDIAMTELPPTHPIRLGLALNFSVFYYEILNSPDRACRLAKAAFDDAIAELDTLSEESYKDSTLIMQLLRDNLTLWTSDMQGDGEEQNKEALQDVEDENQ
UniProt P68510: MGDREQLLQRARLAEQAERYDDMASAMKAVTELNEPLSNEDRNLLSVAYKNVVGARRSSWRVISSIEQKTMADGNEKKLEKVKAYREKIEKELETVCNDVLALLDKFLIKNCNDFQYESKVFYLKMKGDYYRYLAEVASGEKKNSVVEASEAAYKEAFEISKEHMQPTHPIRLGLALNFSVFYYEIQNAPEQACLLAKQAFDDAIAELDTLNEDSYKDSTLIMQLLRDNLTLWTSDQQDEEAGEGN

Assays:
Caskin2-FL–GFP (human) [1] = molecular target: Caskin2-FL–GFP (human) (UniProt Q8WXE0); experiment: affinity purification with mass spectrometry; GFP-Trap of Caskin2–GFP stably expressed in HaCaT cells; label-free quantitation
Caskin2-FL–GFP (human) [2] = molecular target: Caskin2-FL–GFP (human) (UniProt Q8WXE0); experiment: affinity purification with mass spectrometry; GFP-Trap of Caskin2-FL–GFP (GFP as control) stably expressed in GE11tetONβ1 cells; label-free quantitation
Caskin2-FL–GFP (human) [3] = molecular target: Caskin2-FL–GFP (human) (UniProt Q8WXE0); experiment: affinity purification with mass spectrometry; GFP-Trap of Caskin2-FL–GFP against Caskin2-PRR4A–GFP, transiently expressed in COS-7 cells (same samples as the co-IP with HA–Abi1); label-free quantitation

| binding (Caskin2-FL–GFP (human) [2]) | also measured | Substance |
| --- | --- | --- |
|  | binding (Caskin2-FL–GFP (human) [1]): binds | ABI2 (endogenous, HaCaT cells) (from UniProt Q9NYB9 1-513) |
| binds |  | Abi1 (endogenous, GE11 cells) (from UniProt Q8CBW3 1-481) |
| binds |  | Abi2 (endogenous, GE11 cells) (from UniProt P62484 1-446) |
|  | binding (Caskin2-FL–GFP (human) [3]): binds | HA–Abi1 (from UniProt Q8IZP0-6 1-480) |
| binds |  | Ywhae (endogenous, GE11 cells) (from UniProt P62259 1-255) |
| binds |  | Ywhah (endogenous, GE11 cells) (from UniProt P68510 1-246) |

No constants are given. Whether binding was seen depends on the method and setting. Binding seen in cells or lysates may run through a third protein. Here binding means that the protein was enriched with, or labelled near, the bait; the list need not be complete.
